Assay results taken from the supplement of paper PMC3334620.
Over roughly 33,000 sequences, “E-score (-0.5 to 0.5)” has its median near -0.015; the highest 2% begin near 0.3. The list shows a part of the results.

Molecular target: T1, Abf1 (UniProt P14164)
T1 sequence: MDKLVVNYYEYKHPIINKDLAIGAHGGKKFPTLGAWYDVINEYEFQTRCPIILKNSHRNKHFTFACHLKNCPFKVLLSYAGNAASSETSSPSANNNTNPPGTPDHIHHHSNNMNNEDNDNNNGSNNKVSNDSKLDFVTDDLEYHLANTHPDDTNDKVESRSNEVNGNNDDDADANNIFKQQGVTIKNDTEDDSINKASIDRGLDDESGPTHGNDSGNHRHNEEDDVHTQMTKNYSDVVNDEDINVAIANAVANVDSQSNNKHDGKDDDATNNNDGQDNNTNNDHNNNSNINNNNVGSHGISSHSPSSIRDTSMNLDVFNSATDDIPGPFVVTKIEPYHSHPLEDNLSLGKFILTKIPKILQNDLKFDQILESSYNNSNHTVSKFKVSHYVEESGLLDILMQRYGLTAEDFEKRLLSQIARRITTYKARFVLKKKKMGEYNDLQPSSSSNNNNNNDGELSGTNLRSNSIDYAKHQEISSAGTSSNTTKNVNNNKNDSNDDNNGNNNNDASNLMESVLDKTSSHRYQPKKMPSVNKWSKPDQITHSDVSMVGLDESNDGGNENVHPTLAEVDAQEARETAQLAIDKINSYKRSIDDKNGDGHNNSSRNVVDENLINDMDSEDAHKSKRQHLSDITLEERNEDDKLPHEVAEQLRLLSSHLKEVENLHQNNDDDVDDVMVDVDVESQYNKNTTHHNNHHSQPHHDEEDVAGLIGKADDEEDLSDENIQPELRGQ
Test: PBM E-score (8-mer binding enrichment) (E-score (-0.5 to 0.5)); higher = stronger / more preferred TF binding
Details: protein concentration: 200 nM; construct: GST-full length
Summary of the method: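 Full-length yeast transcription factors or their DNA-binding domains, GST-tagged and expressed with PURExpress, were applied at about 100-200 nM to universal all-10-mer Agilent arrays. These arrays had been made double-stranded by primer extension on fresh or once-stripped slides. Detection used fluorescent anti-GST, normalisation used masliner, and E-scores for ungapped eight-base words pooled with reverse complements came from the Universal PBM Analysis Suite.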

| Sequence | PBM E-score |
| --- | --- |
| CAGGGGGA | -0.239 |
| ATGTTGAC | 0.0691 |
| GGCGTTTA | -0.0253 |
| GTTTACTA | 0.0858 |
| CAAATTTG | -0.106 |
| TACACCCA | -0.015 |
| GTTTCTAA | -0.0553 |
| CAGTGCAA | 0.0273 |
| ACCAGTCA | -0.0892 |
| ATAAATTA | 0.362 |
| GTTGACGA | 0.21 |
| CACCATAC | -0.111 |
| CCAATCCC | -0.193 |
| CAACTCTC | -0.0795 |
| AAGTTAAC | 0.0985 |
| CGTATGTC | 0.253 |
| ACTATCTC | 0.15 |
| ACAGTCGC | -0.0877 |
| ACGACACT | 0.193 |
| AGCCCATC | -0.135 |
| CCGACCAA | 0.046 |
| GGGCAGCA | -0.256 |
| AGGCTCGA | -0.18 |
| CCACTCTC | -0.22 |
| TGGCCCAA | -0.16 |

| Sequence | PBM E-score |
| --- | --- |
| CCACGGCG | 0.142 |
| CTGTCGAC | -0.137 |
| GTTAATAA | 0.185 |
| GCAAGACA | 0.0377 |
| ATTCTAGA | -0.0566 |
| ACGTCGTA | 0.228 |
| CCGGTGGA | -0.123 |
| ACGAGTGG | 0.0971 |
| AGTGATTG | 0.135 |
| AAACACTG | -0.108 |
| AACGGTCT | 0.0379 |
| GGACGCCC | -0.0892 |
| CAGGTCAA | -0.197 |
| TGGTGAAA | -0.13 |
| CGATCATA | 0.0936 |
| GAGGAAAA | -0.0502 |
| AAGGTAGG | 0.0623 |
| CCAGGTCG | 0.072 |
| ACGCGCTA | 0.0336 |
| ATCTGCGC | -0.00428 |
| GCATGCAA | -0.131 |
| TAAAACCA | -0.0332 |
| CTTCAGTA | -0.0213 |
| CTGCAGCA | -0.115 |
| CGCCGCCC | -0.239 |

| Sequence | PBM E-score |
| --- | --- |
| CAGGCAAG | -0.0923 |
| GGGTCTAC | -0.174 |
| CTGTTAGA | -0.00358 |
| GGATAGCA | 0.118 |
| CTTCCTAC | -0.154 |
| GGTCAGGA | -0.113 |
| ATAGTGTG | -0.0346 |
| GAACCAGC | 0.00057 |
| GCACCTGC | -0.119 |
| CTAACTTA | 0.038 |
| ACCTAAAT | 0.16 |
| CACGGATC | 0.0691 |
| ACTAAGCG | 0.0128 |
| ATCGCAGA | -1e-05 |
| GACTACAC | -0.0203 |
| AATGATAG | 0.229 |
| ATCGTTTG | 0.298 |
| GCCAAAGC | -0.222 |
| ACCCTAAC | -0.0596 |
| GTGAGTGA | 0.154 |
| AAAGCCAT | -0.0213 |
| CGCATTCC | -0.271 |
| ATCTCAGC | 0.109 |
| TACCGACA | 0.0784 |
| AAATGGTC | -0.0951 |

| Sequence | PBM E-score |
| --- | --- |
| CGTGCCCA | -0.0605 |
| TACGGAAA | 0.112 |
| AACATCAG | 0.0871 |
| CACGGCAA | 0.219 |
| CACAGGGC | -0.0418 |
| CAGACGGG | 0.0358 |
| AGGATTGC | -0.175 |
| AAATCCCG | -0.143 |
| TGATTGCA | -0.0155 |
| ACCCGCAC | -0.0741 |
| CAGGGATC | -0.0917 |
| GACAAATA | 0.181 |
| AGGACTCG | -0.0691 |
| CCCCACGC | -0.227 |
| ATGAGCCA | -0.207 |
| CGCCGCTC | -0.0305 |
| ATGATATC | 0.362 |
| AAGCCCGA | -0.152 |
| CGTCTAGC | 0.13 |
| AATAAGAC | 0.0262 |
| CCCGCCTA | -0.0972 |
| GGATTAAC | 0.0444 |
| ACACAATC | 0.0301 |
| ATCGACCA | -0.158 |
| CGAGAATC | 0.0268 |

| Sequence | PBM E-score |
| --- | --- |
| ACGTTGAA | 0.198 |
| ATGCAACC | 0.0863 |
| GCTACAAA | 0.0774 |
| TGTCAGAA | -0.0788 |
| AAGTTCGG | -0.0363 |
| AAGAGATG | 0.00226 |
| CTGGACCA | -0.204 |
| CACTATTC | 0.184 |
| AAGGATGA | 0.194 |
| CATGCACG | 0.0738 |
| ATCGGCTC | -0.131 |
| ACTTCGAG | -0.124 |
| GGTGCCAA | 0.00901 |
| ACACTTGG | -0.047 |
| AGAATTCC | 0.0725 |
| GACCTTGA | -0.0527 |
| AGACGTTA | -0.00034 |
| AGGTAGGG | -0.168 |
| AAACATCA | 0.194 |
| AGGAGCAA | -0.0973 |
| AGTATGCC | -0.0156 |
| CATGGATC | -0.111 |
| CTAGCTCA | -0.198 |
| GATAGTTA | 0.223 |
| AATTCGAA | -0.0114 |

Two consecutive entries from above, for reference:

| Sequence | PBM E-score |
| --- | --- |
| AAAGCCAT | -0.0213 |
| CGCATTCC | -0.271 |

Carrying on:

| Sequence | PBM E-score |
| --- | --- |
| CTGGTCGA | -0.26 |
| GCACATAC | -0.275 |
| ACGTCTCA | 0.248 |
| ACGGTTTC | 0.0478 |
| CCGCAAAG | -0.106 |
| GCCCGATA | -0.0903 |
| CACGTGAG | -0.0359 |
| AATGCGAT | 0.128 |
| ACAGACGA | 0.236 |
| AATCCAGG | 0.0662 |
| CGTAGTAA | 0.207 |
| AAGATATG | 0.283 |
| GAAGGCAA | -0.165 |
| CCAAAGGC | 0.00611 |
| ACCTAGCA | -0.12 |
| TCCGAGCA | -0.0191 |
| CCGTCACG | 0.04 |
| ACGTCAGC | -0.0336 |
| AGCCAATC | 0.0251 |
| GCTATGAC | 0.0492 |
| AGGGCCAA | -0.321 |
| GAGTGGAA | -0.182 |
| AGCATGGA | -0.21 |
| AGCGACAG | 0.172 |
| CAAAATAG | -0.142 |

4 records picked at random from those above, as already listed:

| Sequence | PBM E-score |
| --- | --- |
| TGATTGCA | -0.0155 |
| TACACCCA | -0.015 |
| ACGTCTCA | 0.248 |
| AATGCGAT | 0.128 |

(further entries)

| Sequence | PBM E-score |
| --- | --- |
| TGAATACA | -0.00315 |
| AAAAGTCT | 0.0544 |
| CATCAAGA | 0.0429 |
| AACGTAAC | 0.132 |
| CAGGGCAA | -0.19 |
| AGTCAACA | -0.109 |
| GGGGGCAA | -0.0502 |
| ACTCCCTG | -0.273 |
| CAGACCTC | 0.00051 |
| AAGTCGTA | 0.163 |
| ATATATCG | 0.244 |
| CCTATAAC | -0.117 |
| CCGAGTAC | -0.0732 |
| TACGGCGA | 0.313 |
| GTACAATA | 0.242 |
| GGCGGCGA | -0.223 |
| AGAGCATC | -0.0958 |
| GGCGCTCA | 0.0329 |
| CTAACAGA | 0.133 |
| ACTTGGCT | -0.255 |
| AGCTATTC | -0.0512 |
| CACCCGAG | -0.157 |
| ATGCAGTC | 0.0059 |
| ACAACAAT | 0.0693 |
| GATCTCCC | -0.029 |

| Sequence | PBM E-score |
| --- | --- |
| AGAAGCCG | -0.117 |
| CCCAAGAG | -0.0637 |
| AGGGCACC | -0.266 |
| AATAAAGG | -0.155 |
| TGAGTTAA | 0.0647 |
| AGCTCCTG | -0.189 |
| GGTGAAAA | 0.124 |
| CGCAGAGA | -0.0553 |
| AATAAATA | 0.32 |
| GTGGTGTA | -0.0517 |
| AGCGACTC | 0.0163 |
| GCTAGTCA | 0.0156 |
| AAAGATAC | 0.134 |
| AATCACCC | 0.195 |
| GCTGTAAC | 0.0262 |
| AGAGGGGC | -0.24 |
| AAGGTCGC | 0.0476 |
| ACAGATCT | -0.0985 |
| CTATTCAG | 0.0697 |
| AAGGCAAC | -0.144 |
| CAGATTTA | 0.00418 |
| ACGGGACA | 0.0901 |
| ACCGCCTC | -0.183 |
| ATATATCA | 0.311 |
| AAGATCCT | 0.0788 |

Part of the list above, as labelled records.
GTTGACGA
  PBM E-score: 0.21
CACCATAC
  PBM E-score: -0.111
CCAATCCC
  PBM E-score: -0.193
CAACTCTC
  PBM E-score: -0.0795

Carrying on.

| Sequence | PBM E-score |
| --- | --- |
| GCCCAAGA | -0.0151 |
| AATTGAGG | -0.0502 |
| ATGCCAGA | -0.0116 |
| CGGGCGCC | -0.053 |
| AGTTGGCC | -0.163 |
| GCTTCCAC | -0.0734 |
| ACCAAACT | 0.00058 |
| ACCATGAA | 0.037 |
| GTGCATAA | 0.0588 |
| GTGGTCCA | 0.0315 |
| TTAAAGAA | -0.0564 |
| TAAGGGAA | 0.0347 |
| CATCCGGC | -0.223 |
| CATTCAAC | 0.0639 |
| ATTAGATG | 0.227 |
| AGTAACTA | 0.108 |
| CAAATAAG | -0.11 |
| CCTCGGCC | -0.128 |
| ACACCCAC | -0.12 |
